Experimental data from patent US20030096004A1, “(S,S'),(S,R')-amphetaminil, compositions and uses thereof” (priority 2001, published 2003).
At least one structure is not confirmed: it was looked up by name or label, or the drawing left a doubt.

Tests used:
normal rats [1] = assay: Induction of stereotyped behaviour in normal rats (stereotypy scoring); format: in vivo, rat; conditions: male Wistar rats, s.c., all doses tested
Protocol: (§1) Male Wistar rats (n=4 per group) were randomly allocated to each drug treatment group. Drugs were administered such that, with the exception of fusaric acid, each rat in each group received all doses of the drug or vehicle in a semi random manner according to the modified Latin Square in Table 1. Compounds were administered at the doses: 0.1, 1 and 10 mg/kg s.c. in 100% DMS0 (vehicle). Amphetamine was administered at 0.1, 1 and 5 mg/kg s.c. in saline (vehicle). Fusaric acid was administered at 20, 40 and 80 mg/kg s.c. in saline (vehicle). Rats received each dose of fusaric acid (20, 40 and 80 mg/kg), doses given in order, starting with vehicle. A one-week interval was provided between doses.
At the start of the experiment, rats were placed in standard perspex behaviour boxes with a visible grid on the floor to allow determination of locomotor activity. […] Following drug administration animals were returned to the behaviour cages and locomotor activity was assessed for a further 5 hours or until baseline (zero activity for 30 minutes) was achieved, whichever was sooner. Locomotor activity was assessed by videoing the rats throughout the experiment, and counting the number of times a rat crossed a grid line during a period of 5 minutes every 10 minutes. […]
The mean and standard error for stereotypy activity for 15 seconds every 10 minutes for each rat at each time point was determined. […]

normal rats [2] = assay: Locomotor activity in normal rats (grid line crossings); format: in vivo, rat
Protocol: as §1
At the start of the experiment, rats were placed in standard perspex behaviour boxes with a visible grid on the floor to allow determination of locomotor activity. The animals were allowed to acclimatise to their environment for 1 hour prior to drug/saline administration. Following drug administration animals were returned to the behaviour cages and locomotor activity was assessed for a further 5 hours or until baseline (zero activity for 30 minutes) was achieved, whichever was sooner. Locomotor activity was assessed by videoing the rats throughout the experiment, and counting the number of times a rat crossed a grid line during a period of 5 minutes every 10 minutes. Throughout the experiment animals were scored for stereotyped behaviours for 15 seconds every 10 minutes by a trained observer using the scoring methods described in Table 2.
The mean and standard error for locomotor activity over 10 minutes for each rat at each time point was determined. […] Cumulative activity, during the 300 min was also calculated, and the effect of dose of drug was analyzed by one-way repeated measures ANOVA followed by Dunnett's t-test (GraphPad Prizm). Data was also analysed for significant fit to a sigmoidal-shaped log dose-response curve using non-linear regression analysis (GraphPad Prizm).

CCCCc1ccc(C(=O)O)nc1 [Fusaric acid]
stereotypy (overall effect) (normal rats [1]): did not increase stereotypy | inhibition of normal activity (normal rats [2]; 40 mg/kg s.c.): small, but significant inhibition | inhibition of normal activity (normal rats [2]; 80 mg/kg s.c.): not | locomotor activity (overall effect) (normal rats [2]; male Wistar rats, s.c., all doses tested): did not increase locomotor activity
